Some of these results come from one statement about several compounds together.
Assay: Solubility in cosmetic solvents (CÉTIOL LC, CRODAMOL DA)
Details: solvent CÉTIOL LC (Coco-caprylate/caprate)

| Structure (SMILES) | Solubility in CÉTIOL LC |
| --- | --- |
| C=C(COc1cc2c(cc1OC)/C(=C(\C#N)C(=O)OCC)CC2(C)C)[Si](C)(O[Si](C)(C)C)O[Si](C)(C)C [Example 11] | miscible |
| C=C(CNC(=O)/C(C#N)=C1\CC(C)(C)c2cc(OC)c(OC)cc21)[Si](C)(O[Si](C)(C)C)O[Si](C)(C)C [Example 8, Cyano-(2,3-dihydro-5,6-dimethoxy-3,3-dimethyl-1H-inden-1-ylidene)acetic Acid-2-(1,3,3,3-tetramethyl-1-[(trimethylsilyl)-oxy]-disiloxanyl)-prop-2-enyl Amide] | miscible |

Source: patent US6416746B1, “Indanylidene compounds” (Roche Vitamins Inc., priority 1998, dated 2002)
